# Reference: patent publication US20080075726A1 (VACCINEX, published 2008)
# These are yes or no findings as the source states them, for the method shown.
# What was measured:
# [1] = biological target: NNT-1; assay: ELISA, cytokine coated on the plate, mAb at 10, 5, 2.5, 1.25, 0.625, 0.313, 0.156 and 0 ng/ml
# [2] = biological target: TNF-α; assay: as above
# [3] = biological target: oncostatin M; assay: as above
# [4] = biological target: CNFT; assay: as above
# [5] = biological target: IL-11; assay: as above
# [6] = biological target: NNT-1; assay: ELISA on IL-6 superfamily members (FIG. 5A)
# [7] = biological target: oncostatin M; assay: ELISA on IL-6 superfamily members (FIG. 5A)
# [8] = biological target: CNFT; assay: ELISA on IL-6 superfamily members (FIG. 5A)
# [9] = biological target: IL-11; assay: ELISA on IL-6 superfamily members (FIG. 5A)
binder,measurement,setting,value
"mAb 88 (chimeric B-E8 control antibody) (antibody, V domains shown, Biotinylated in FIG. 16., Chimeric form of murine B-E8; also called control mAb 88) VH: QVTLKESGPGILKPSQTLSLTCSFSGFSLSTSGMGVGWIRQPSGKGLEWLAHIWWDDDKYYNPSLKSQLTISKDTSRNQVFLKITSVDTADTATYYCARSYDDYLYYALDYWGQGTSVTVSS VL: DIVMTQSPATLSVTPGDRVSLSCRASQSISDYLHWYQQKSHESPRLLIKSVSQSISGIPSRFSGSGSGSDFTLSINSVEPEDVGVYYCQNGHSFPLTFGAGTKLELK",binding,[1],no binding (tested: 10 ng/ml)
same,binding,[2],no binding (tested: 10 ng/ml)
same,binding,[3],no binding (tested: 10 ng/ml)
same,binding,[4],no binding (tested: 10 ng/ml)
same,binding,[5],no binding (tested: 10 ng/ml)
same,binding,[6],no binding
same,binding,[7],no binding
same,binding,[8],no binding
same,binding,[9],no binding
